Assay results reported in patent US11604185B2 (priority 2007, dated 2023).
At least one peptide structure holds a part that was inferred or is arguable (an end, a ring closure or a residue). At least one compound was matched to its structure with a doubt left. Where a SMILES comes first, the peptide text is derived from it. [ ]: non-standard residue; d: D form. The star is where a group is joined. 5FAM = O=C1OC2(c3ccc(O)cc3Oc3cc(O)ccc32)c2ccc(C(=O)*)cc21; Dabcyl = CN(C)c1ccc(N=Nc2ccc(C(=O)*)cc2)cc1; X1 = Cc1c(CC(=O)*)c(=O)oc2cc(O)ccc12; Nle = CCCC[C@H](N)C(=O)O

System: BoNT/A holotoxin, complex or the non-toxic LCs
Type: biochemical, Clostridium botulinum

CCCC[C@H](NC(=O)[C@H](CCCCNC(=O)c1ccc(N=Nc2ccc(N(C)C)cc2)cc1)NC(=O)[C@@H](NC(=O)[C@H](C)NC(=O)[C@H](CCCNC(=N)N)NC(=O)[C@H](CCC(N)=O)NC(=O)[C@H](CC(N)=O)NC(=O)[C@H](C)NC(=O)[C@H](CCC(=O)O)NC(=O)[C@H](CC(=O)O)NC(=O)[C@@H](NC(=O)[C@H](CCCNC(=N)N)NC(=O)[C@@H](NC(=O)c1ccc2c(c1)C(=O)OC21c2ccc(O)cc2Oc2cc(O)ccc21)[C@@H](C)O)[C@@H](C)CC)[C@@H](C)O)C(N)=O [#115] (5FAM-TRIDEANQRATK(Dabcyl)[Nle]-NH2)
cleavable by BoNT/A holotoxin, complex or non-toxic LCs alone: can be cleaved

CCCC[C@H](NC(=O)[C@H](CCCCNC(=O)c1ccc(N=Nc2ccc(N(C)C)cc2)cc1)NC(=O)[C@@H](NC(=O)[C@H](C)NC(=O)[C@H](CCCNC(=N)N)NC(=O)[C@H](CCC(N)=O)NC(=O)[C@H](CC(N)=O)NC(=O)[C@H](C)NC(=O)[C@H](CCC(=O)O)NC(=O)[C@H](CC(=O)O)NC(=O)[C@@H](NC(=O)[C@H](CCCNC(=N)N)NC(=O)[C@@H](NC(=O)Cc1c(C)c2ccc(O)cc2oc1=O)[C@@H](C)O)[C@@H](C)CC)[C@@H](C)O)C(N)=O [#116] (X1-TRIDEANQRATK(Dabcyl)[Nle]-NH2)
cleavable by BoNT/A holotoxin, complex or non-toxic LCs alone: can be cleaved
